The whole screen tested about 53,000 sequences, of which about 3,700 (7%) were called active.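 Rule for the calls: active = gene knockdowns whose robust z-score for IL-1 alpha signal is at least 2 or at most -2, so actives lie on both sides; inactive = the rest.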 The list shows a part of the results.

This assay can be described thus: Components of the Cytosolic LPS Sensing Pathway: Gene Identification via Genome-wide siRNA Screen.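 Note: robust z of the log signal after scaling to non-targeting control siRNA wells of the plate.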 As to conditions: RAW264.7 macrophages, IL-1a HTRF, actives lie on both sides, screened at 100 nM (by protocol), cells primed 5 h with Pam3CSK4 first. The essentials: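 Using IL-1a HTRF as read-out, the screen measured release from RAW264.7 cells after 48h siRNA knockdown (100 nM), 5 h Pam3CSK4 priming and 24 h cytosolic LipidA. Values were expressed relative to negative-control wells as robust z-scores.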
Turning to GGAGCAUUUUAUUCAGAUGTT against Rad23b, the z-score is active: 2.22.

GCCUCCCUGAAUGCCUAUATT against Sectm1b: the z-score is inactive: -1.81.

For GGGAUACGUCAUCUGUUAATT against Ilf3, the z-score was inactive: -0.667.

In the case of GCCAGGAAUAGUGAUUAUUTT against Atp11c, the z-score was inactive: -1.19.

Regarding GGAGGGAGUGAAAACUUUCTT against Ankrd46, the z-score is inactive: 0.616.

Regarding GGUUUACUUCCCAUACCUGTT against Pold1, the z-score was inactive: 0.701.

As for GGUUGUCAAUCAUGUCUAUTT against Gpr137c, the z-score is inactive: 1.09.

On to CGAAGCUGUUCAUAAGUAUTT against Gsr, for which the z-score was inactive: 1.06.

With CCCUAUGGUGAAAUCUGUCTT against Prrc1, the z-score was inactive: -1.8.

As for GGUGAUAGAGUAGAAGAUGTT against Hdgfl3, the z-score is inactive: 0.3.

Regarding GCCCGUGUAGUGCUGGAUUTT against Tbca, the z-score is inactive: -1.2.

In the case of GCUUCACAAUUCCUGAUAATT against Aak1, the z-score is inactive: 0.398.

As for GGAGUUUGACAAGAAGUACTT against Dynll1, the z-score was inactive: -0.303.

In the case of GGUAUAGUUAAAGUGAGAGTT against Sp8, the z-score is inactive: -0.883.

In the case of GGACUAUGGGAUUUCAGUUTT against Txndc16, the z-score was inactive: 0.263.

Turning to GGAGAAGGAUAGAGAUGGUTT against Phf5a, the z-score is inactive: -1.84.

On to CCUACCAAAACGACUAUAUTT against Pnma3, for which the z-score is inactive: -1.29.

Turning to GGCGAGAGGUACGACAAUATT against H60a, the z-score was inactive: -1.96.

For the sequence CCAAAAGGUUCGAGUUUCATT against Padi4, the z-score was inactive: 1.57.

For GCCAAUACCAAUCAAGCUGTT against Celf4, the z-score is inactive: -1.97.

Regarding GCAUCUCACGCUACAGAUUTT against Dock2, the z-score was inactive: 1.97.

Regarding GCUGUUACCCUUAUGCAGCTT against Supt7l, the z-score was inactive: 0.486.

For CGGAAACGAAGACUUGAAATT against Arhgef4, the z-score is inactive: -0.151.

With UAAUCAUGAGCUCUUCCGATT against N4bp2, the z-score was inactive: 0.527.

Turning to GGCAUCUGUUACCCAGAAUTT against Zfp384, the z-score is inactive: -1.92.

As for GGUUGGAUGCUUUCUAAGATT against Pot1a, the z-score was inactive: 0.923.

As to GGCCAAGGUGAGAGUACUGTT against Hsd3b5, the z-score is inactive: 0.23.

CCUAUAAUCCCAGAGAAAATT against Cobll1: the z-score was inactive: 0.558.

As to GGAGGGAGUCUCUGUUACUTT against Pus10, the z-score was inactive: 0.513.

Consider GGCUCUGUCUCUUAAUGGGTT against Gpx5, for which the z-score is inactive: 0.53.

For the sequence GCCCAGUACAACCCUCCUATT against Fbxw19, the z-score was inactive: 0.0161.

For GCACAAUUUCGUGUGAGCUTT against Sfxn5, the z-score is inactive: 0.643.

On to GGUGGAUACACAGGACAAATT against Invs, for which the z-score was inactive: 1.58.

As to GGACGAACUCAUCAACAGUTT against Gtf2ird1, the z-score is inactive: -0.00436.

Take CGCAAUAAAGAAUUCUCCCTT against Rex1bd: the z-score was inactive: -1.75.

Take GGAGCCAGUGACAAUAAAUTT against Mtag2: the z-score was inactive: -1.1.

On to CGCCUUUUGGAAUAUUUCATT against Mblac2, for which the z-score is inactive: -0.352.

Take GGUCUCCACUGAGGACUGUTT against Ndufa2: the z-score is inactive: 0.284.

As to GGAGCUGUACGGCAAGAUCTT against Gipc1, the z-score was inactive: 0.477.

On to CCUGGAGGUGACCGCUUUATT against Cdc20, for which the z-score was inactive: -0.221.

For GGUCUUCCUAAGAGAGACATT against Slc51b, the z-score is inactive: -1.03.

Turning to GAUUGUGGACUUAAGGAUUTT against Vmn1r75, the z-score was inactive: 0.773.

GGACCUGGAGCUGAGAAGATT against Rpap3: the z-score is inactive: 0.181.

Turning to GCUGGUAGCAUUCUUAUCCTT against Xylt2, the z-score was inactive: 0.529.

On to UAUUAAACUCUUGAGACCGTT against Oxa1l, for which the z-score is inactive: -0.571.

In the case of GGACAGUGUCUAGAUAUUGTT against Fbln5, the z-score was inactive: -1.18.

Take CCUGCUGCUUAUUAAAGUUTT against Bckdk: the z-score was inactive: -0.308.

For GCUGAAAACACACCUAGCATT against Gin1, the z-score is inactive: 1.19.

As to GGUGGAUAGAGCAAUUGAATT against Jph1, the z-score was inactive: 1.5.

GCUCGAUCAUGGGCCUAUATT against Crls1: the z-score is inactive: -0.189.

Regarding GGUUCGUGUGGUUUAACAUTT against Afg3l1, the z-score was inactive: 1.55.

Consider CGUGUUAUGACAAAAGAGGTT against Defb39, for which the z-score is inactive: 0.206.

With GGGAAAAAGAUGCAAGUAUTT against Ctnnbip1, the z-score is inactive: 0.623.

For the sequence GAGGCUCUGUGGAAUUUUATT against Olfr1217, the z-score is inactive: 1.1.

Consider GGAAAUACUCAUCAAGUCUTT against Phldb2, for which the z-score is inactive: -1.33.

For GGUCAUCGAUCACAUUGAUTT against Thbs4, the z-score was inactive: 0.197.

For GGAUAAGUACACGCUUCCCTT against Sox2, the z-score is inactive: 0.657.

As to GGUCAAUCAUUUCUAUGUUTT against Pdcd6, the z-score is inactive: -1.1.

For the sequence UGAUGAUGGGUGUGGUUGUTT against Olfr887, the z-score was inactive: -1.53.

On to GCAUCGACAACCUCUCUAGTT against Hba-x, for which the z-score was active: 3.15.

For GGAGAUGACUGAUUUGAAGTT against Ccnb3, the z-score is inactive: -0.109.

As to GGAAUUCACAGAUACCGUGTT against Guca1a, the z-score was inactive: 0.93.

With GGUUAUUCAGCUCCUUAAATT against Paxip1, the z-score was inactive: 0.978.

Turning to GGAGAAUGGCCACGUAAAATT against Marcks, the z-score is inactive: 0.294.

In the case of GGAUAACCCUGUAAUGAUATT against Dctn4, the z-score is inactive: -0.0106.

Take GGCUGAUGCAGACAGUUUCTT against Brap: the z-score is inactive: -0.655.

Turning to GGACCUUUGUUGUCAGUCATT against Zfp319, the z-score is inactive: -1.79.

Turning to GGAGGACAAGGAGGAUGACTT against Samd10, the z-score is inactive: 0.324.

For the sequence CCGAGUUCCUUCAACAUGCTT against Hoxb7, the z-score was inactive: -0.105.

For GCGGUAUCCUAGCUGUGAATT against Brsk1, the z-score was inactive: -0.0667.

Take GGUGGCACGAUGCUAUGUUTT against Hcar2: the z-score was inactive: -0.981.

With GCAUGAGUUAGACCAUAAUTT against Phf12, the z-score is active: -2.59.

GGUUUUCCGGACCAAAAUUTT against Rasa3: the z-score was inactive: 0.466.

Take GGUCUCUCGGACUUUUUCCTT against Adipor1: the z-score was inactive: -0.765.

As for GGAAGUGUUGGCUAUUUUUTT against Kctd10, the z-score was inactive: 1.04.

On to “GCUUUUUAUCCGUGUCGAUTT against 4930474N05Rik”, for which the z-score was inactive: 0.501.

With GGAGGAGUGUUGUAUCUGCTT against Rnf141, the z-score was inactive: 1.17.

For the sequence GGAGUAAACGACAAAAUGGTT against Gosr1, the z-score is inactive: 0.172.

CCUACUAAAGGUGAUCUGATT against Mtmr10: the z-score was inactive: -1.35.

Regarding GGAGAGAGUGCAUCUAUAATT against Gdi2, the z-score is inactive: 0.184.

On to CGACGAAGAUUCUGACAAUTT against Gpr153, for which the z-score is inactive: -0.217.

For CGUUGGUACCAAGAAGUACTT against Snai3, the z-score is inactive: -0.99.

For the sequence GGUCCAAAAGUGACAUAUATT against Ddx4, the z-score was inactive: -1.51.

Consider GCCAUAUCUGUCCAAGUUATT against Sdf2l1, for which the z-score is inactive: -1.4.

As to GAGCCACUUUCUCAAGUGUTT against Pou3f1, the z-score was active: 3.02.

Consider GGUGAACUGUCAUAACUGGTT against Synj2, for which the z-score was inactive: 1.48.

As for CGAACAGAUGCUUAAUGUCTT against Tubb4b, the z-score was inactive: 1.28.

On to GCCCGCAUUUUGGAAACUCTT against Lmbr1, for which the z-score was inactive: -0.462.

Turning to UUUCGAGCUGAUCCAUGAGTT against Tbata, the z-score was inactive: 1.19.

As to GGCUGAACUUCUUUCCAAGTT against Cd209b, the z-score is inactive: 1.41.

With GGACAUUUGACACACAACATT against Scyl3, the z-score was inactive: -0.959.

Regarding GCCCUGCUUCAUAUGGAAUTT against Elf2, the z-score was inactive: 0.963.

CCACAACAACAGGAGUACUTT against Nedd4l: the z-score is inactive: 0.695.

Regarding GGUUCCUUAAUUUAUUGCCTT against Fbxl22, the z-score is active: 2.31.

On to GGAAAGGAAAUCAAGGAUUTT against Gngt2, for which the z-score is inactive: -1.

Regarding GGAGUUUUACGGACUGCUGTT against Pard6b, the z-score was inactive: 0.984.

Turning to GGGCAUGCAAUGUUCAUGCTT against Rho, the z-score was inactive: 0.095.

For the sequence GCCUUGCCCUUGUGUUUCUTT against Tomm6, the z-score was inactive: 0.0921.

Turning to GACCACCUGCUAAUGGGAGTT against Prp15, the z-score was inactive: 0.145.

Consider GGCUUUGCUUUCCUUACUUTT against Rbmy, for which the z-score was inactive: -0.326.

Regarding GGGAUCCUCUUGACAUUCCTT against Epdr1, the z-score is active: 3.87.

Consider GGUACUUUUCUCACUUCUATT against Srd5a3, for which the z-score is inactive: -0.972.

Consider GGAGACGAGAAACAAACCCTT against Diaph2, for which the z-score is inactive: 1.68.

On to GGAGAAUGUGCCUACUUGATT against Clec2e, for which the z-score is inactive: -0.97.

On to GCGGAUAAGAUUGAUGUAGTT against Degs1, for which the z-score is inactive: -0.592.

On to GGACAGAAAAUGUGAAAAGTT against Mdfi, for which the z-score was inactive: -1.14.

As to CCACAUUGGAACAAAGAGUTT against Lctl, the z-score is inactive: -0.558.

As for GCACAAAUCGAAUUGGCAUTT against Tgm3, the z-score was inactive: 0.421.
